By UniProt entry, the sequences of proteins in these tests, tags left out. Residues count along the entry.
UniProt Q9Y5N5, whole entry: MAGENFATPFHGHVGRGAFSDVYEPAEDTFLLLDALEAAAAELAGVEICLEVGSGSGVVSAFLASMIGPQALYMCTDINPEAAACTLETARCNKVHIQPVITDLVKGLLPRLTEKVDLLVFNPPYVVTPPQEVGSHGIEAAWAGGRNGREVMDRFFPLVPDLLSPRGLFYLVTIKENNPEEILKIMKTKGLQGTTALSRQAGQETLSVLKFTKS
UniProt Q9UI30, 1-120 isoform 2 partner: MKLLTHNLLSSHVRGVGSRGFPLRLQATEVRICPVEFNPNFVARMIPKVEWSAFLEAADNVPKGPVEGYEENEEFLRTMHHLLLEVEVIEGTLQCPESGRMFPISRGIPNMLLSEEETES

In patent US20250188110A1, “SPECIFIC SMALL MOLECULE INHIBITORS THAT BLOCK KMT9 METHYLTRANSFERASE ACTIVITY AND FUNCTION” (ALBERT-LUDWIGS-UNIVERSITÄT FREIBURG, priority 2021, published 2025):

Assays:
KMT9 [1] = biological target: T1, KMT9 (Homo sapiens, UniProt Q9Y5N5); test: KMT9 thermal shift assay (SyproOrange); details: 500 µM compound, 2 μM KMT9
Procedure: The assay was carried out in 96-well Hard-Shell PCR plates (Bio-Rad Laboratories Inc.). Assay buffer consisted of 50 mM BTP, 1 mM MgCl2 and 1 mM DTT at a pH of 8.5 (adjusted using 1 M HCl and 1 M NaOH). 20X inhibitor stock (in DMSO), 2X enzyme stock and 4X SyproOrange (SO) stock (both in assay buffer) were prepared. 1 μL of 20X compound, 4 μL of assay buffer, 10 μL of 2X KMT9 and 5 μL of 4X SO were pipetted. For the no-compound control, 20X inhibitor stock was replaced by DMSO. The final volume was 20 μL. The plate was spun down at 700 rpm for 1 min using a Hettich UNIVERSAL 320 centrifuge and incubated at 25° C., shaking at 600 rpm. After incubation, the plate was spun down for 1 min at 700 rpm and measurement was conducted using a CFX96 Touch Real-Time PCR Detection System (Bio-Rad Laboratories Inc.). The plate was equilibrated at 20° C. for 4 min and then heated stepwise at a rate of 1° C. per 15 s until 95° C. After every step, fluorescence was measured in FRET mode. Calculation of melting points was conducted by a Boltzman sigmoidal model using GraphPad Prism 7.0.
For the results of the thermal shift assay shown as “Thermal shift” in Table 1, “++++” represents a ΔTm of greater 20 K, “+++” represents a ΔTm of greater than 15 K and less than or equal to 20 K (15 K<ΔTm≤20 K); “++” represents a ΔTm of greater than 10 K and less than or equal to 15 K (10 K<ΔTm ≤ 15 K); “+” represents a ΔTm of equal to or less than 10 K (ΔTm≤10 K).

KMT9 [2] = biological target: T1, KMT9; test: KMT9 methyltransferase inhibition assay, MTaseGlo luminescence (from entry 155); details: read-out: Inhibition (IC50); MTaseGlo procedure (entries from 155); 100 nM KMT9, 5 μM ETF1, 1 μM SAM
Procedure: For the compounds from entry 155 on in Table 1, the following procedure was used to determine IC50 values: The assay was carried out in white, opaque 384-well OptiPlates (PerkinElmer). For IC50 determination, a 2.5x substrate mix (final assay concentrations: 5 μM ETF1, 1 μM SAM and 1x MTaseGlo Reagent), a 2.5x KMT9 solution (final assay concentration 100 nM) and a 5x inhibitor stock 1:1 dilution series (concentration according to the desired range; dilution series was prepared in assay buffer containing 10% DMSO to obtain a final DMSO concentration of 2% in the assay) were prepared. 2 μL of 5x inhibitor stock and 4 μL of 2.5x KMT9 were pipetted, the plate was spun down at 700 rpm for 1 min using a Hettich UNIVERSAL 320 centrifuge and incubated at room temperature (around 25° C.) for 15 min. The reaction was initiated by adding 4 μL of 2.5x substrate mix, the plate was spun down as described before and incubated at 30° C. for 2 h. Afterwards, 10 μL of 2× MTaseGlo Detection solution was added, the plate was centrifuged as described above and incubated for 60 min at room temperature. Luminescence was measured using a PerkinElmer EnVision 2102 Multilabel Reader. Calculation of inhibition and data fitting was carried out as for entries 1-154. described above.
For the results of the methyltransferase inhibition assay shown as “Inhibition” in Table 1, “I” represents an IC50 less than 0.1 μM, “II” represents an IC50 equal or higher than 0.1 μM and less than 1 μM, “III” represents an IC50 equal or higher than 1 µM and less than 10 µM and “IV” represents an IC50 equal or higher than 10 µM

HT-1376 cells = test: Inhibition of cell proliferation, X-Celligence RTCA, HT-1376; details: 5000 cells/well
Procedure: Cell proliferation was determined using X-Celligence RTCA system (Roche). For real-time recording of HT-1376, resp. Cal29 cell proliferation, 5000 cells/well were seeded in 16 well E-plates (Roche). Cells were seeded in the presence of DMSO or the tested compound of formula (I) as indicated in Table 124 h before seeding in E-plates. Cell indices were automatically recorded every 15 minutes. Relative velocities represent the change of the cell index over time.
For the results of the HT-1376, resp. Cal29 cell proliferation assay shown as “in vivo (HT-1376 Cells)” and “in vivo (Cal29 Cells)” in Table 1, “***” represents an anti-proliferation effect at less than or equal to 10 μM; “**” represents an anti-proliferation effect at greater than 10 µM and less than or equal to 30 μM; “*” represents an anti-proliferation effect at greater than 30 µM and less than or equal to 100 μM.

KMT9 [3] = biological target: T1, KMT9; test: Microscale thermophoresis (MST) KMT9 binding; details: read-out: MST (Kd); His-tag labelled KMT9 20 nM
Procedure: To determine the binding affinity of the compounds according to the present invention and KMT9, microscale thermophoresis (MST) analysis was performed with a NanoTemper Monolith NT.115 instrument (NanoTemper Technologies GmbH). KMT9 was labelled with a RED-Tris-NTA labelling kit (NanoTemper Technologies GmbH) based on the manufacturer's instructions. Buffer including 25 mM HEPES (pH 7.5), 100 mM NaCl, 1 mM DTT and 0.05% Tween was used for the reaction buffer. Varying concentrations of the tested compounds of formula (I) as indicated in Table 1 were titrated against His-tag labelled KMT9 proteins (20 nM). Samples were loaded into standard Capillaries (NanoTemper Technologies GmbH) and MST measurements were performed using 40% MST power and 100% LED power. For each set of binding experiments, MST measurement was carried out with Binding Affinity module in MO.Control program under Nano-RED Excitation. Datasets were processed with the MO.Affinity Analysis software (NanoTemper Technologies GmbH).
For the results of the microscale thermophoresis (MST) assay shown as “MST” in Table 1, “A” represents a Kd of equal to or less than 10 nM (Kd≤10 nM); “B” represents a Kd of greater than 10 nM and equal to or less than 100 nM (10 nM<Kd<100 nM); “C” represents a Kd of greater than 100 nM and equal to or less than 1000 nM (100 nM<Kd ≤ 1000 nM); “D” represents a Kd of greater than 1000 nM (1000 nM<Kd).

pIC50 (KMT9 [2]): 5.00 to 6.00
pKd (KMT9 [3]): 6.00 to 7.00
SMILES: Nc1nc(Cl)nc2c1ccn2[C@@H]1C[C@H](c2cccc(-c3cnsc3)c2)[C@@H](O)[C@H]1O
Thermal shift (ΔTm) (KMT9 [1]): ++ (a ΔTm of greater than 10 K and less than or equal to 15 K (10 K<ΔTm ≤ 15 K))
in vivo (HT-1376 Cells), anti-proliferation effect (HT-1376 cells): ** (an anti-proliferation effect at greater than 10 UM and less than or equal to 30 μM)

pIC50, pKd: −log10 of the molar value. Structures were worked out from names or drawings and are uncertain.
